This list was built around the results that the source calls inconclusive (neither active nor inactive); the mix of calls is not that of the screen. A potency beside an inconclusive call is a rough fit, not a confirmed value. Calls of active or inactive are those of the source. The call rests on the fitted dose curve. Positions of bridges follow the written chain, without caps; N, C: chain ends. Non-standard residues stand in square brackets, D forms with d. Residues, ends and D or L forms follow the SMILES beside them. *: point of attachment. X1 = CCC(C)C(N)C1=NC(C(=O)*)CS1; dOrn = NCCC[C@@H](N)C(=O)O
Molecular target: Papain (Carica papaya) (UniProt P00784)
Experiment: Selectivity profile for inhibitors of NSP2Pro chikungunya virus (CHIKV): Papain Counterscreen (AID 1964104)
Conditions: purified papain protease activity, enzymatic inhibition; series mostly up to 51 µM
Potency means the concentration at half of the fitted maximal effect.

The chains behind the UniProt entries cited, without tags or fusion partners. Where a name states a change or a piece, a line headed by the entry shows the natural chain unless it says otherwise.
UniProt P00784: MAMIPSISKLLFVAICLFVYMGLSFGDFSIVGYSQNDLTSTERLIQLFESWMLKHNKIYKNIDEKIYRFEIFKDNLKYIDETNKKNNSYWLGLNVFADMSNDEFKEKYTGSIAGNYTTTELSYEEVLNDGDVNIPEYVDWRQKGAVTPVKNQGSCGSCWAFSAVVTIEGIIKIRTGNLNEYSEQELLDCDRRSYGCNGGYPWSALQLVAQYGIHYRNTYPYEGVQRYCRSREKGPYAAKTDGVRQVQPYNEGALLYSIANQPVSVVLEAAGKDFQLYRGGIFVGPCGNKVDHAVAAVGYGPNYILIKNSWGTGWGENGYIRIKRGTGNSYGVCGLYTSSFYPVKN

Row | Compound | Potency
1 | CC1=C2C[C@@]3(C)C(CCC[C@@H]3C)C(O)C2OC1=O (stereo not given in full) | inconclusive: 20.6 µM [inhibitor, partial curve]
2 | COC(=O)c1cc(CN2CCN(C(=N)N)CC2)cc(C(=O)N2CCN(C(=O)c3ccc(C(=N)N)cc3)CC2)c1 | inconclusive: 0.819 µM [inhibitor, partial curve, poor fit]
3 | CC(C)(O)C1OC1C1=CC(=O)C2(C)OC2C1O (stereo not given) | active: 10.3 µM
4 | C/C(=N\N=C(N)N)c1ccc(NC(=O)Nc2ccc(/C(C)=N/N=C(N)N)cc2)cc1 | inconclusive: 20.6 µM [inhibitor, partial curve, poor fit]
5 | C=CCCCCCCCCC(=O)O | inconclusive: 10 µM [inhibitor, partial curve]
6 | CCC(C)C(N)C1=NC(C(=O)N[C@@H](CC(C)C)C(=O)N[C@H](CCC(=O)O)C(=O)N[C@H](C(=O)N[C@H]2CCCCNC(=O)[C@H](CC(N)=O)NC(=O)[C@@H](CC(=O)O)NC(=O)[C@H](Cc3cnc[nH]3)NC(=O)[C@@H](Cc3ccccc3)NC(=O)[C@H]([C@@H](C)CC)NC(=O)[C@@H](CCCN)NC2=O)[C@@H](C)CC)CS1 (stereo not given in full) (X1-L[dE]IK[dOrn]I[dF]H[dD]N; lactam 4-C) | active: 3.18 µM

Tested on: Chikungunya virus nsP2 protease
Experiment: Confirmatory qHTS for inhibitors of NSP2Pro chikungunya virus (CHIKV) (AID 1964105); further: nearly all actives have a fitted effect of over 75% in size
Conditions: CHIKV nsP2 protease enzymatic activity; series mostly up to 25.5 µM

Row | Compound | Potency
7 | COC(=O)c1cc(CN2CCN(C(=N)N)CC2)cc(C(=O)N2CCN(C(=O)c3ccc(C(=N)N)cc3)CC2)c1 | inconclusive: 14.2 µM [inhibitor, partial curve]
8 | O=C(Nc1ccc(N2CCN(CCOc3ccc(Cl)cc3)CC2)c(C(=O)O)c1)c1ccc(F)cc1 | active: 7.11 µM
9 | C=CCNc1nnc(-c2cccc3ccccc23)o1 | active: 7.11 µM
10 | C/C(=N\N=C(N)N)c1ccc(NC(=O)Nc2ccc(/C(C)=N/N=C(N)N)cc2)cc1 | active: 8.96 µM
11 | CC(=O)NC1CC2(CCN(C(=O)CCCNC(=O)OC(C)(C)C)CC2)Oc2ccccc21 (stereo not given) | inconclusive: 12.6 µM [inhibitor, partial curve]
12 | CCOC(=O)c1ccc(OCCN2C[C@H](O)[C@@H](O)[C@H](O)[C@H]2CO)cc1 | inconclusive: 7.78 µM [inhibitor, partial curve]
13 | CCC(C)C(N)C1=NC(C(=O)N[C@@H](CC(C)C)C(=O)N[C@H](CCC(=O)O)C(=O)N[C@H](C(=O)N[C@H]2CCCCNC(=O)[C@H](CC(N)=O)NC(=O)[C@@H](CC(=O)O)NC(=O)[C@H](Cc3cnc[nH]3)NC(=O)[C@@H](Cc3ccccc3)NC(=O)[C@H]([C@@H](C)CC)NC(=O)[C@@H](CCCN)NC2=O)[C@@H](C)CC)CS1 (stereo not given in full) (X1-L[dE]IK[dOrn]I[dF]H[dD]N; lactam 4-C) | active: 0.219 µM
14 | CCN(CC)Cc1ccc(C(=O)N(CCc2ccccc2OC)[C@@H]2CCNC2)cc1 | inconclusive: 4.37 µM [inhibitor, partial curve]
15 | COCCN1C(=O)CO[C@H]2CN(c3ncccn3)C[C@H]21 | active: 16.3 µM
